Reference: PubChem BioAssay AID2551 (National Center for Advancing Translational Sciences (NCATS), 2010)
About 17,000 (5.5%) of roughly 310,000 compounds were called active. Inconclusive means that the source gave no clear call. Such entries were picked first, then a sample of the others. Calls follow the shape of the dose curve; as a rule, active = well fitted inhibition curve with a large enough effect; inconclusive = small, poorly fitted or top-dose-only effect, or effect the other way; inactive = no such curve, though single readings can be large or run the other way. A potency beside an inconclusive call is a rough fit, not a confirmed value.

Protein sequences, listed by entry. Tags and fused reporters are not part of them. Lines headed by an entry give the natural chain unless they say otherwise; changes in a name come on top.
UniProt P51450: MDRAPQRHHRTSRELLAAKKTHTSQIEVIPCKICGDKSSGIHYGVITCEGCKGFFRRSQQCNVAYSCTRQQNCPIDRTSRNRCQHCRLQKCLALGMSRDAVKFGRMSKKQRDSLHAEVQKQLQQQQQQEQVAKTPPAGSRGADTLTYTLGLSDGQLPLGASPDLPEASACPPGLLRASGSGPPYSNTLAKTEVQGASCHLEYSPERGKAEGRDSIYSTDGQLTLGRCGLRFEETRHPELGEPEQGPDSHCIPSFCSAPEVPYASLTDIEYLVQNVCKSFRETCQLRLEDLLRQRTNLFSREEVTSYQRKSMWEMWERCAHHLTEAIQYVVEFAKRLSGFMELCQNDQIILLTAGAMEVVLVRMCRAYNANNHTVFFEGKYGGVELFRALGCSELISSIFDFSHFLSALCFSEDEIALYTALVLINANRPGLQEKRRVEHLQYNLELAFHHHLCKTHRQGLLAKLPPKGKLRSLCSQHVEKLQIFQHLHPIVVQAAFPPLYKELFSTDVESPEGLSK

These molecules were tested against Nuclear receptor ROR-gamma (Mus musculus) (UniProt P51450) (assay: qHTS for inhibitors of ROR gamma transcriptional activity). Settings: Drosophila S2 Gal4-RORgamma UAS-luciferase reporter, 20 h; activity change, negative = inhibition: at 53.6 µM (top of the series).
How it was run: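 Schneider cells (Drosophila), stable Gal4 DBD–ROR gamma + UAS-luc; 1 hr cmpd preincubation; Cu2+ induction 700 uM final; 20 hr ambient; luminescence.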
% is scaled to controls: 0 for no effect and ±100 for the full control effect; potency is read from the fitted curve at half-maximal effect.
Also: nearly all actives have a fitted effect of over 60% in size.

| Structure (SMILES) | activity change, negative = inhibition | Potency |
| --- | --- | --- |
| O=C(NNC(=O)c1ccccc1Br)c1ccc(SCC2CCCO2)c([N+](=O)[O-])c1 (stereo not drawn) | inactive: -10.5% | – |
| CC1CCc2sc3ncn4nc(C(=O)NCc5ccco5)nc4c3c2C1 (stereo not drawn) | inactive: -23.2% | – |
| O=C(Nc1nnc(SCC(=O)N2CCCCC2)s1)c1ccccc1F | inactive: 36.4% | – |
| CC1CCN(CCNC(=O)C2CCCN(S(=O)(=O)c3cccc4nonc34)C2)CC1 (stereo not drawn) | – | inconclusive: 3.16 µM [inhibitor, single point] |
| COc1cccc(-c2c(C(=O)N/N=C(\C)c3cccs3)nnn2-c2nonc2N)c1 | – | inconclusive: 25.1 µM [inhibitor, single point] |
| COc1cccc(C(=O)Nn2c(-c3cccs3)nc3ccccc3c2=O)c1OC | – | inconclusive: 31.6 µM [activator, single point] |
| C=CCn1c(SCN2C(=O)c3ccccc3C2=O)nc2ccc(Cl)cc2c1=O | – | active: 8.91 µM |
| CCOc1ccc(OCc2ccc(C(=O)O)o2)cc1 | – | active: 10 µM |
| COc1ccc(-n2cc(-c3ccccc3)c3c(NN4CCOCC4)ncnc32)cc1 | – | active: 4.47 µM |
| COc1ccc(OC)c(NC(=O)/C=C/c2ccccc2[N+](=O)[O-])c1 | – | inconclusive: 11.2 µM [activator, single point] |
| COc1ccc(NS(=O)(=O)c2cccc(NC(=O)CCS(=O)(=O)c3ccccc3)c2)cc1 | – | inconclusive: 35.5 µM [activator, single point] |
| CCCCOc1ccc(C(=O)NCCOc2cccc(OC)c2)cc1 | inactive: -0.138% | – |
| CCOc1ccc(NC(=S)c2ccc3ccccc3n2)cc1 | – | active: 6.31 µM |
| CC(NC(=O)c1ccc2ccccc2n1)c1ccccc1 (stereo not drawn) | inactive: 19.9% | – |
| COc1ccc(NC(C)C(=O)N/N=C/c2c(O)ccc3ccccc23)cc1 (stereo not drawn) | – | active: 1.58 µM |
| O=C(N/N=C/c1ccccc1O)C1(O)c2ccccc2-c2ccccc21 | – | active: 0.562 µM |
| Cc1nc(Cl)cc(N/N=C/c2ccccc2)n1 | – | inconclusive: 10 µM [activator, partial curve] |
| O=c1ccc2[n+]([O-])c3ccc(O)cc3oc-2c1 | – | inconclusive: 35.5 µM [inhibitor, single point] |
| CC1(CC(=O)N/N=C/c2cc([N+](=O)[O-])c(O)cc2O)OCCO1 | – | active: 5.62 µM |
| COc1ccc(S(=O)(=O)N2CCN(c3c(C)cccc3C)CC2)cc1OC | inactive: -26.1% | – |
| CC(=O)OC[C@H]1O[C@@H](O/N=C(\C)CCN2CCCCc3nc(C)c(C)cc32)[C@H](OC(C)=O)[C@@H](OC(C)=O)[C@H]1OC(C)=O | inactive: -0.576% [at 10 µM] | – |
| C/C(=N\NC(=S)Nc1cccc(C)c1)c1ccccc1 | – | active: 1.12 µM |
| CCN1CCCc2cc(CN(CCN3CCOCC3)C(=S)Nc3ccc(OC)c(OC)c3)ccc21 | inactive: -1.24% | – |
| CCC[C@H](CN[C@@H](CNC)[C@H](C)CC)NCCc1cc(C(F)(F)F)cc(C(F)(F)F)c1 | – | inconclusive: 22.4 µM [inhibitor, single point] |
| COc1ccc(C2CCCN2C(=S)Nc2ccccc2C)cc1OC (stereo not drawn) | – | inconclusive: 31.6 µM [inhibitor, single point] |

| Structure (SMILES) | activity change, negative = inhibition | Potency |
| --- | --- | --- |
| CNC(=O)c1ccccc1NC(=O)c1cccc(S(=O)(=O)N2CCC(C)CC2)c1 | inactive: 16.4% | – |
| CC(C)(C)n1ncc2c(=O)n(Cc3ccc(Cl)cc3)cnc21 | – | inconclusive: 35.5 µM [inhibitor, single point] |
| COC(=O)C1=C(C)NC(=S)NC1c1ccc(-c2cccc(Cl)c2)o1 (stereo not drawn) | – | active: 14.1 µM |
| CC(C)C(=O)Nc1cccc(NC(=O)c2cccc(Br)c2)c1 | – | inconclusive: 25.1 µM [activator, single point] |
| COc1ccc(C2CC(c3c(-c4ccccc4)c4cc(Cl)ccc4[nH]c3=O)=NN2S(C)(=O)=O)cc1OC (stereo not drawn) | – | inconclusive: 20 µM [inhibitor, partial curve, poor fit] |
| O=Cc1cn(CC(=O)Nc2ccc(F)cc2)c2ccccc12 | – | inconclusive: 14.1 µM [activator, partial curve] |
| COc1cccc(/C=N/NC(=O)c2cc(-c3cccn3C)n[nH]2)c1O | – | active: 1 µM |
| Cc1ccc(S(=O)(=O)NC(C)CCc2ccccc2)cc1C(N)=O (stereo not drawn) | – | inconclusive: 12.6 µM [activator, partial curve] |
| O=C(C1COc2ccccc2O1)N1CCN(c2nc3ccccc3s2)CC1 (stereo not drawn) | – | inconclusive: 0.316 µM [activator, full curve] |
| Cc1ccc2ncnc(Nc3ccccc3)c2c1 | inactive: 12.9% | – |
| CC(/C=N/NC(=O)CCn1nnc2ccccc21)=C\c1ccccc1 | – | inconclusive: 11.2 µM [activator, single point] |
| CN(Cc1ccccc1O)CC1CCCN(CCc2ccc(Cl)cc2)C1 (stereo not drawn) | inactive: -28% | – |
| CCOC(=O)c1sc2ccc(S(=O)(=O)N3CCCCC3)cc2c1N | – | inconclusive: 17.8 µM [activator, partial curve] |
| Cc1ccc(S(=O)(=O)NNC(=S)NCCc2ccccc2)cc1 | – | active: 11.2 µM |
| COc1ccc(CNC(=O)C2CC(c3cccc(OC)c3)=NO2)cc1 (stereo not drawn) | – | inconclusive: 14.1 µM [activator, single point] |
| CCn1c2ccccc2c2cc(N=C3SC(CC(=O)Nc4ccccc4OC)C(=O)N3CCOC)ccc21 (stereo not drawn) | – | inconclusive: 35.5 µM [inhibitor, single point] |
| COc1ccc(C2(CNC(=O)/C=C\c3ccco3)CCCC2)cc1OC | – | inconclusive: 15.8 µM [inhibitor, single point] |
| Nc1cc(S(=O)(=O)Nc2cc(Cl)ccc2Cl)ccc1N1CCOCC1 | – | inconclusive: 25.1 µM [activator, single point] |
| CC(C)Oc1ccc(CC2CCC(=O)N(C)C2=O)cc1 (stereo not drawn) | – | inconclusive: 11.2 µM [activator, partial curve] |
| Cc1c(-n2c(SCC(N)=O)nc3ccccc3c2=O)c(=O)n(-c2ccccc2)n1C | inactive: -7.56% | – |
| Cc1nc(Nc2ccc(Cl)cc2Cl)sc1C(=O)Nc1ccccc1 | – | inconclusive: 12.6 µM [activator, partial curve] |
| COc1cccc(/C=C/C(=O)OCC(=O)Nc2ccc(Cl)c(S(=O)(=O)N(C)C)c2)c1 | – | inconclusive: 35.5 µM [activator, partial curve] |
| O=C(N/N=C/c1ccc(Cl)c([N+](=O)[O-])c1)c1cc(-c2ccccc2)nc2ccccc12 | – | inconclusive: 35.5 µM [activator, single point] |
| CSc1ccc(N=Nc2c(C)[nH]n(C)c2=O)cc1 | – | inconclusive: 12.6 µM [inhibitor, single point] |
| CCOC(=O)C(=O)Nc1nc(-c2ccccc2)c(-c2ccccc2)o1 | – | active: 20 µM |

| Structure (SMILES) | activity change, negative = inhibition | Potency |
| --- | --- | --- |
| COC(=O)CSC1=C(C#N)C(c2ccc(F)cc2)CC(=O)N1 (stereo not drawn) | – | inconclusive: 11.2 µM [inhibitor, single point] |
| COc1ccc(N2CCN(CC(=O)N3CCC(C)CC3)CC2)cc1 | inactive: 12.2% | – |
| COc1ccc2nc(-c3cccc(N)c3)[nH]c2c1 | – | inconclusive: 15.8 µM [inhibitor, single point] |
| CNC(=O)C1C(=S)NC(N)=C(C#N)C1c1ccccc1 (stereo not drawn) | – | inconclusive: 7.08 µM [inhibitor, partial curve, poor fit] |
| CC(Oc1ccc(F)cc1)C(=O)/C=C\N(C)C (stereo not drawn) | – | inconclusive: 5.62 µM [inhibitor, single point] |
| Cc1ccc(/C=C/C(=O)Nc2cc(S(N)(=O)=O)ccc2O)cc1 | – | inconclusive: 8.91 µM [activator, partial curve] |
| COC(=O)c1ccc(Oc2c(Cl)cccc2[N+](=O)[O-])cc1 | – | active: 7.94 µM |
| CCCn1c(SCC(=O)Nc2cc(S(=O)(=O)N3CCOCC3)ccc2Cl)n[nH]c1=O | – | inconclusive: 17.8 µM [activator, single point] |
| CCOc1cccc(-c2c(C(=O)N/N=C/c3ccc(Br)cc3)nnn2-c2nonc2N)c1 | – | inconclusive: 35.5 µM [inhibitor, single point] |
| O=c1c2ccccc2nc2sc3ccccc3n12 | – | inconclusive: 4.47 µM [activator, partial curve, poor fit] |
| Cc1ccc(C)c(NS(=O)(=O)c2cc(C(=O)NCc3ccncc3)ccc2C)c1 | inactive: -0.0892% | – |
| Cc1ccc(Cn2ccc(NC(=O)c3noc4c3CCCCC4)n2)cc1 | – | inconclusive: 11.2 µM [activator, partial curve] |
| O=C(Nc1c(Cl)ccc2nsnc12)c1ccc([N+](=O)[O-])o1 | inactive: -39% | – |
| COc1ccc(CC(=O)Nc2c3c(nn2C(C)(C)C)CS(=O)(=O)C3)cc1OC | inactive: -3.21% | – |
| Cc1cccc(-c2noc(CCCC(=O)Nc3cccnc3)n2)c1 | inactive: -12.3% | – |
| O=C(Cc1ccccc1)Nc1nnc(-c2ccco2)o1 | – | active: 2.82 µM |
| CC1C/C(=N\NC(=S)NCc2ccccc2)CC(C)(C)C1 (stereo not drawn) | – | active: 1.26 µM |
| CN(C)c1ccc(/C=C(\NC(=O)c2ccccc2)C(=O)NCCN2CCOCC2)cc1 | inactive: -28.6% | – |
| CCN(CC(=O)Nc1sc2c(c1C#N)CCC(C)C2)CC(=O)NC1CCS(=O)(=O)C1 (stereo not drawn) | – | inconclusive: 8.91 µM [activator, partial curve, poor fit] |
| Cc1oc(S(=O)(=O)N(C)C)cc1C(=O)Nc1ccc(Cl)cc1 | inactive: 0.221% | – |
| CCCC(=O)Nc1nc(C)c(-c2csc(Nc3ccc(Cl)cc3)n2)s1 | – | inconclusive: 7.08 µM [activator, partial curve] |
| CS(=O)(=O)Nc1cccc(C2=NN(S(=O)(=O)c3ccc(F)cc3)C(c3cccs3)C2)c1 (stereo not drawn) | – | inconclusive: 25.1 µM [activator, single point] |

Structures from the list above that contain a tert-butyl group:

| Structure (SMILES) | activity change, negative = inhibition | Potency |
| --- | --- | --- |
| CC(C)(C)n1ncc2c(=O)n(Cc3ccc(Cl)cc3)cnc21 | – | inconclusive: 35.5 µM [inhibitor, single point] |
| COc1ccc(CC(=O)Nc2c3c(nn2C(C)(C)C)CS(=O)(=O)C3)cc1OC | inactive: -3.21% | – |

An excerpt of these results, with each value named.
O=c1c2ccccc2nc2sc3ccccc3n12
  Potency: inconclusive: 4.47 µM [activator, partial curve, poor fit]
Cc1ccc(C)c(NS(=O)(=O)c2cc(C(=O)NCc3ccncc3)ccc2C)c1
  activity change, negative = inhibition: inactive: -0.0892%
Cc1ccc(Cn2ccc(NC(=O)c3noc4c3CCCCC4)n2)cc1
  Potency: inconclusive: 11.2 µM [activator, partial curve]
